Test results taken from publication doi:10.1101/2024.08.31.610651.
Read-outs that look alike come from different tables or passages of the source. No constants are given. Whether binding was seen depends on the method and setting. Binding seen in cells or lysates may run through a third protein. Some binding calls cover weakened binding; strength is not graded here. For some assays here: Sequences can lack the tags named with a protein.

By UniProt entry, the sequences of proteins in these tests, tags left out. Residues count along the entry.
UniProt O00206, residues 24-839: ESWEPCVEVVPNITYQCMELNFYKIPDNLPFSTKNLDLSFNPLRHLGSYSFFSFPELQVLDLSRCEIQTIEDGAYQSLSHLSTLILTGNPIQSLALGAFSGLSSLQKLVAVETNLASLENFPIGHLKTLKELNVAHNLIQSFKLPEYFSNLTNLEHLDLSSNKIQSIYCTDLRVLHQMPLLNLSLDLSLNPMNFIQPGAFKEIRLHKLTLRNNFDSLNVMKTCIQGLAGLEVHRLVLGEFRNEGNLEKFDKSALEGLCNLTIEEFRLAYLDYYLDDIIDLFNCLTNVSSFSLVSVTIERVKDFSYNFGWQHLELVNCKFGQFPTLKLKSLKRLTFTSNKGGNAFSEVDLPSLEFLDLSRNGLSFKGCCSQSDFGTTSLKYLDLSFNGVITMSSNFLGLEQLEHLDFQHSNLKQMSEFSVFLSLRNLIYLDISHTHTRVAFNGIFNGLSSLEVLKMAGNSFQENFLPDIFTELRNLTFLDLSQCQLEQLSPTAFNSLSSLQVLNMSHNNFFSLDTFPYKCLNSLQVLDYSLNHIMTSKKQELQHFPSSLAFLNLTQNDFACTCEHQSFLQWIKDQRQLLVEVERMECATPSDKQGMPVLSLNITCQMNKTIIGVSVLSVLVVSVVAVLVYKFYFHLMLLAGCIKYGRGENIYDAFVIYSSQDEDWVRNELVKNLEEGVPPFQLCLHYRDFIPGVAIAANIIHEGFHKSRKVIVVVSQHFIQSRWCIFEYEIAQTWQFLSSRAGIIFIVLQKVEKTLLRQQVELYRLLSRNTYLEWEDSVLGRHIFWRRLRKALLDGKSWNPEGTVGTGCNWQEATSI
UniProt O08863: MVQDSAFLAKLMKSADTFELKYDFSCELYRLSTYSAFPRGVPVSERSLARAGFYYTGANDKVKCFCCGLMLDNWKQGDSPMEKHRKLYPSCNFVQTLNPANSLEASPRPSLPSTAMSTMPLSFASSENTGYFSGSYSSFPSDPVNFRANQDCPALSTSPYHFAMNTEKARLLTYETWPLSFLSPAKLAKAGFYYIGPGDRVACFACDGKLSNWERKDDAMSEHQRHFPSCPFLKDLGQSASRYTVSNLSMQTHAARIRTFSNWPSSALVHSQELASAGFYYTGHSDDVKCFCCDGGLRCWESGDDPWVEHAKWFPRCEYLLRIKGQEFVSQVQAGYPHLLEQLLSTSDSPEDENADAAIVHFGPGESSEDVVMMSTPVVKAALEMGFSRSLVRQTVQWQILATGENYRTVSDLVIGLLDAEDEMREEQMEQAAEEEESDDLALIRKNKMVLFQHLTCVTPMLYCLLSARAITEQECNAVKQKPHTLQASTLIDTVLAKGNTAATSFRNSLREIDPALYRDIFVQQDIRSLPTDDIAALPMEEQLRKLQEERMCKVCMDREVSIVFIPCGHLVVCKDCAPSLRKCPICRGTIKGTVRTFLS
UniProt Q13489: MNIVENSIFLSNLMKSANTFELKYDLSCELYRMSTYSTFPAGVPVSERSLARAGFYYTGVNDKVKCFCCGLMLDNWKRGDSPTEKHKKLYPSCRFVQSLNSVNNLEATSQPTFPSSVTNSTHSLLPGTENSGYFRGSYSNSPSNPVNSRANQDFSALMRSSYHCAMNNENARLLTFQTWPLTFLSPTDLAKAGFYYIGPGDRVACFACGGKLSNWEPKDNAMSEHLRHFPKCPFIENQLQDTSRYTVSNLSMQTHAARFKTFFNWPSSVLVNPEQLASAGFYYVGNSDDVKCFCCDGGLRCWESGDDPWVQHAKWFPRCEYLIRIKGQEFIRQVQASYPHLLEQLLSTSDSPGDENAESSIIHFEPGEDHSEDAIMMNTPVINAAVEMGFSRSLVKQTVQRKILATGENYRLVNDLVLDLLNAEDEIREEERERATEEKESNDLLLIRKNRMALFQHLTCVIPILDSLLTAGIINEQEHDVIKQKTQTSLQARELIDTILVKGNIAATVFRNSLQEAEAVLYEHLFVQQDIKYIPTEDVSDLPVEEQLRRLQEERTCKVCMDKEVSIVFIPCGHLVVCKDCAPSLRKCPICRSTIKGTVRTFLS
UniProt Q9BYM8: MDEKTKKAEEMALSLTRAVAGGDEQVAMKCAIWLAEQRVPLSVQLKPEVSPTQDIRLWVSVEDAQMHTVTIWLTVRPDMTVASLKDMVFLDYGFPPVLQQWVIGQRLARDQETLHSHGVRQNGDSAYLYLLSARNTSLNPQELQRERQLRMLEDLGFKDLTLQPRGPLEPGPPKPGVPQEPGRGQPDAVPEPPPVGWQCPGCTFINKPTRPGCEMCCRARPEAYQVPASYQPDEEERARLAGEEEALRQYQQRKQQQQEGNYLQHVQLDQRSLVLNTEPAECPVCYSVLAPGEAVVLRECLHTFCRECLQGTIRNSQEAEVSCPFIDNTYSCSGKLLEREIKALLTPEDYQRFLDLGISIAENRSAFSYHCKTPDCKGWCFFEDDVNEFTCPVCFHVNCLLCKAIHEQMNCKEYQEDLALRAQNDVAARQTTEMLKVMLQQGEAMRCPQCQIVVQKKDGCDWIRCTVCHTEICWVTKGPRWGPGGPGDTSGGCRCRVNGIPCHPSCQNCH

Legend:
Test in all cases: co-IP
[1] = molecular target: T1, mouse TRAF1-Flag V196A (mouse) (UniProt P39428)
T1 sequence: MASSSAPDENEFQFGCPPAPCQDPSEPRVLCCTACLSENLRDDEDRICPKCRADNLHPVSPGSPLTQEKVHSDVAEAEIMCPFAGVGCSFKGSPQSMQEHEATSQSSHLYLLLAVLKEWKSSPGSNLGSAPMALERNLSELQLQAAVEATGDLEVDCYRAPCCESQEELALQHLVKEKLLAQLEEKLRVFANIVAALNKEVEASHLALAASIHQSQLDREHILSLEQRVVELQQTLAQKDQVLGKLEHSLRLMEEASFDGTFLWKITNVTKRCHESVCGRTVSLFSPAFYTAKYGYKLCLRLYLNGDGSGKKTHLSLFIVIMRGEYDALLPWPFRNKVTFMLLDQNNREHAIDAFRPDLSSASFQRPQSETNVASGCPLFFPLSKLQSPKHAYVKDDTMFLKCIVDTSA

[2] = molecular target: T2, mouse TRAF1-Flag V196E (mouse) (UniProt P39428)
T2 sequence: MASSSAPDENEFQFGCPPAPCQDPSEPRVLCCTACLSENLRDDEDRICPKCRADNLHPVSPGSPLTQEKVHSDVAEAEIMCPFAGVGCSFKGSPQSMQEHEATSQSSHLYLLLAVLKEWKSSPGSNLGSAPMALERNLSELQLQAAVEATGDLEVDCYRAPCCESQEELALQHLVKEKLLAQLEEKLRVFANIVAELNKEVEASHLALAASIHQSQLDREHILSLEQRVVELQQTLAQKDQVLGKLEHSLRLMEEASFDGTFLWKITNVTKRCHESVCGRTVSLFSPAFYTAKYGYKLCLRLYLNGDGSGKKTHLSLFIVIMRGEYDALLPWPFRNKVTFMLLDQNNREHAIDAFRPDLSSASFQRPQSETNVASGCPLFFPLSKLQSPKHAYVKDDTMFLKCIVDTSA

[3] = molecular target: T3, mouse TRAF1-Flag, wildtype (mouse) (UniProt P39428)
T3 sequence: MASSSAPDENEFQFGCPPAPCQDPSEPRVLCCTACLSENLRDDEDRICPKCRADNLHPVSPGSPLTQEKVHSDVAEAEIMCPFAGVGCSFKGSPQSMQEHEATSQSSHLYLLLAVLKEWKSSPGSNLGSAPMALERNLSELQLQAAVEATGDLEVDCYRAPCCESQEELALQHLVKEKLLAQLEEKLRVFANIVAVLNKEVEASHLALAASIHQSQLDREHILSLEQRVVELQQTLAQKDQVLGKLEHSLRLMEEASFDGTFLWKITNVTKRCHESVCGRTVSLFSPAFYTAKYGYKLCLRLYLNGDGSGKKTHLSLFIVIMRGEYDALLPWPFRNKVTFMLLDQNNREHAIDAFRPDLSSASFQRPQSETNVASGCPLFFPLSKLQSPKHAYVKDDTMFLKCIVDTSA

[4] = molecular target: T4, TRAF1 (tumor necrosis factor receptor-associated factor 1), wildtype, overexpressed (human) (UniProt Q13077)
T4 sequence: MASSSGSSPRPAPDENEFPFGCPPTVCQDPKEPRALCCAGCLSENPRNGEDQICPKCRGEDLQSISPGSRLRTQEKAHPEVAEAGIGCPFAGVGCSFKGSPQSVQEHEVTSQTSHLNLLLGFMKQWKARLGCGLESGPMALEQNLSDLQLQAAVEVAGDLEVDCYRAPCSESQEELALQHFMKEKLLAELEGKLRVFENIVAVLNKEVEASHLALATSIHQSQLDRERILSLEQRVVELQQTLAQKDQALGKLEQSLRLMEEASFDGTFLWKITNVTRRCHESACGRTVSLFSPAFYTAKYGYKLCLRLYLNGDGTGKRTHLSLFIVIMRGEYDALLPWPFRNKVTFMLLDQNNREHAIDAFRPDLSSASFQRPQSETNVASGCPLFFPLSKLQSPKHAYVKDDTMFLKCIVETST

[5] = molecular target: T5, TRAF1 E209A, overexpressed (human) (UniProt Q13077)
T5 sequence: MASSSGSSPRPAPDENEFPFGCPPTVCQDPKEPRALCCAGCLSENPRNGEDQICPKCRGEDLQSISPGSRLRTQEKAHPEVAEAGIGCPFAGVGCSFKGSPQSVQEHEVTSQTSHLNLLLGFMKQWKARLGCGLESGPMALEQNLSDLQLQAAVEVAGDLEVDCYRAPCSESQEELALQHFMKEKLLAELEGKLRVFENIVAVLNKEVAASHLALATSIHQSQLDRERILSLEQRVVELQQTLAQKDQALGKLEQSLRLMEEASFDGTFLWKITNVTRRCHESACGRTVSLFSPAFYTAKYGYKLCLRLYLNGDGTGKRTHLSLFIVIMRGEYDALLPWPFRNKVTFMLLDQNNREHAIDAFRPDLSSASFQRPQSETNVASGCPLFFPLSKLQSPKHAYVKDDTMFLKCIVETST

[6] = molecular target: T6, TRAF1 V203A, endogenous locus mutated in THP-1 cells (human (endogenous in THP-1)) (UniProt Q13077)
T6 sequence: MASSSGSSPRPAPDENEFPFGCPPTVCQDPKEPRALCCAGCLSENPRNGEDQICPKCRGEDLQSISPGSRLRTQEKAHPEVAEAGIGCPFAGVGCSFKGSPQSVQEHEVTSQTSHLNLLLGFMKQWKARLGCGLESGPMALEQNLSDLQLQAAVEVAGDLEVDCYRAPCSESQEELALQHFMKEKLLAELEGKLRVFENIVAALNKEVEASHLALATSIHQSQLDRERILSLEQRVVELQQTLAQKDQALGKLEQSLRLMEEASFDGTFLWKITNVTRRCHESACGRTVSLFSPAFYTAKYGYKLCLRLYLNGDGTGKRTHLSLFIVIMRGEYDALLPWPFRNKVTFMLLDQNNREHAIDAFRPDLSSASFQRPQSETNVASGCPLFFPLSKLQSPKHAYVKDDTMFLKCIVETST

[7] = molecular target: T7, TRAF1, endogenous, wildtype THP-1 cells (human (endogenous in THP-1)) (UniProt Q13077)
T7 sequence: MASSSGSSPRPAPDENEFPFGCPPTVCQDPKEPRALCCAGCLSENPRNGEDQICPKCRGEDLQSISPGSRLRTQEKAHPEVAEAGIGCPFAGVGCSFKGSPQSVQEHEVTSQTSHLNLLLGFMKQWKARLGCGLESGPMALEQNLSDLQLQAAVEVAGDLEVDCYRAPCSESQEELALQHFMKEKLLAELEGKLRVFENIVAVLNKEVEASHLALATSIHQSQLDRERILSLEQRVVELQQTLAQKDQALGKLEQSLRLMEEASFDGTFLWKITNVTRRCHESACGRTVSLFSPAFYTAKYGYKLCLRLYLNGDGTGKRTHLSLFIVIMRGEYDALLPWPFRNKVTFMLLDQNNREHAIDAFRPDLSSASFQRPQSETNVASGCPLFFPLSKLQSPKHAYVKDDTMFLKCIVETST

[8] = molecular target: T8, TRAF1 E207A, overexpressed (human) (UniProt Q13077)
T8 sequence: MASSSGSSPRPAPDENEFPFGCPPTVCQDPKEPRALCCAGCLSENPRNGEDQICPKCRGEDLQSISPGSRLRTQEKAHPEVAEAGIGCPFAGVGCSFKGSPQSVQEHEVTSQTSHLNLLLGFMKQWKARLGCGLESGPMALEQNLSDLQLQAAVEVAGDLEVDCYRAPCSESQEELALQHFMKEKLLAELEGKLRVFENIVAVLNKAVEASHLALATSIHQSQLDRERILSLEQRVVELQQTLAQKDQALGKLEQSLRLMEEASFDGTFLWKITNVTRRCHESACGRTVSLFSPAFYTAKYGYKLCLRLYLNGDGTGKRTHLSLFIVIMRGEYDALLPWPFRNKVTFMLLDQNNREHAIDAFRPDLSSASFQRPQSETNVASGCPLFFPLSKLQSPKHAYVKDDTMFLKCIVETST

[9] = molecular target: T9, TRAF1 V203A, overexpressed (human) (UniProt Q13077)
T9 sequence: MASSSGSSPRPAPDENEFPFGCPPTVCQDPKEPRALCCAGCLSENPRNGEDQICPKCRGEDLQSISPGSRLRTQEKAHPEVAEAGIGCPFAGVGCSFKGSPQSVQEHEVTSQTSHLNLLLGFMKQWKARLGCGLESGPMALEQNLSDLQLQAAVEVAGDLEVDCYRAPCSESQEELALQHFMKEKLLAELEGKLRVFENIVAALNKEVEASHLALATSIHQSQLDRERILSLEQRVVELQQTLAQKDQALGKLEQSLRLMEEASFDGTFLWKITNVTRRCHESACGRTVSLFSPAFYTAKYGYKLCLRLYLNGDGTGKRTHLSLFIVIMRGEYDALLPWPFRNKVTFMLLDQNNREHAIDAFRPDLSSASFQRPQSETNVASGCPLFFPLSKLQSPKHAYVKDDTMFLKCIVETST

[10] = molecular target: TLR4, endogenous, THP-1 cells (human (endogenous in THP-1)) (UniProt O00206)
[11] = molecular target: T1, mouse TRAF1-Flag V196A (mouse); remark: listed apart in the source
[12] = molecular target: T2, mouse TRAF1-Flag V196E (mouse); remark: listed apart in the source
[13] = molecular target: T3, mouse TRAF1-Flag, wildtype (mouse); remark: listed apart in the source

In the case of “mouse cIAP2-Flag-Myc (from UniProt O08863 1-600)”, the binding [1] is reported as “no binding”, the binding [2] is reported as “no binding” and the binding [3] is reported as “binds”.

In the case of “cIAP2 (cellular inhibitor of apoptosis 2), overexpressed (from UniProt Q13489 1-604)”, the binding [4] is reported as “binds” and the binding [5] is reported as “binds”.

In the case of “cIAP2, endogenous, THP-1 cells (from UniProt Q13489 1-604)”, the binding [6] is reported as “no binding” and the binding [7] is reported as “binds”.

With “HOIL-1, overexpressed with human TRAF1 constructs (from UniProt Q9BYM8 1-510)” the binding [4] was “binds”, the binding [8] was “binds” and the binding [9] was “binds”.

B1: TRAF1, endogenous, wildtype THP-1 cells (protein, UniProt Q13077 1-416)
chain: MASSSGSSPRPAPDENEFPFGCPPTVCQDPKEPRALCCAGCLSENPRNGEDQICPKCRGEDLQSISPGSRLRTQEKAHPEVAEAGIGCPFAGVGCSFKGSPQSVQEHEVTSQTSHLNLLLGFMKQWKARLGCGLESGPMALEQNLSDLQLQAAVEVAGDLEVDCYRAPCSESQEELALQHFMKEKLLAELEGKLRVFENIVAVLNKEVEASHLALATSIHQSQLDRERILSLEQRVVELQQTLAQKDQALGKLEQSLRLMEEASFDGTFLWKITNVTRRCHESACGRTVSLFSPAFYTAKYGYKLCLRLYLNGDGTGKRTHLSLFIVIMRGEYDALLPWPFRNKVTFMLLDQNNREHAIDAFRPDLSSASFQRPQSETNVASGCPLFFPLSKLQSPKHAYVKDDTMFLKCIVETST
With B1 the binding [10] was “binds”.

B2: HOIL-1, co-expressed with mouse TRAF1 constructs (protein, UniProt Q9WUB0 1-508)
chain: MDEKTKKAEEMALSLARAVAGGDEQAAIKYATWLAEQRVPLRVQVKPEVSPTQDIRLCVSVEDAYMHTVTIWLTVRPDMTVASLKDMVFLDYGFPPSLQQWVVGQRLARDQETLHSHGIRRNGDGAYLYLLSARNTSLNPQELQRQRQLRMLEDLGFKDLTLQSRGPLEPVLPKPRTNQEPGQPDAAPESPPVGWQCPGCTFINKPTRPGCEMCCRARPETYQIPASYQPDEEERARLAGEEEALRQYQQRKQQQQEGNYLQHVQLEQRSLVLNTEPTECPVCYSVLAPGEAVVLRECLHTFCRECLQGTIRNSQEAEVACPFIDSTYSCPGKLLEREIRALLSPEDYQRFLDLGVSIAENRSTLSYHCKTPDCRGWCFFEDDVNEFTCPVCTRVNCLLCKAIHEHMNCREYQDDLALRAQNDVAARQTTEMLKVMLQQGEAMHCPQCRIVVQKKDGCDWIRCTVCHTEICWVTKGPRWGPGGPGDTSGGCRCRVNGIPCHPSCQNCH
B2 was tested, and the binding [11] was “binds”, the binding [12] was “binds” and the binding [13] was “binds”.
